Source: paper doi:10.1101/2024.04.10.588880
Results are given in words; binding and its absence hold for the method and conditions named. Binding calls can cover weak binding; strength is not graded here.

Sequences of proteins named here, by UniProt entry; tags and fusion partners are left off. Residues count along the entry.
UniProt P71451, 35-297: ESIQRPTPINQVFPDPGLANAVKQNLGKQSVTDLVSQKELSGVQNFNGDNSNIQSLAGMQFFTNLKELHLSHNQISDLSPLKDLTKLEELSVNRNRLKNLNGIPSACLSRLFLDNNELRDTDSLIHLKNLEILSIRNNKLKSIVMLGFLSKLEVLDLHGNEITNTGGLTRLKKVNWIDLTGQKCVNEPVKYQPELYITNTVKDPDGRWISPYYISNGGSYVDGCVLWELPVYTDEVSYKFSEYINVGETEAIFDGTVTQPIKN

Molecular target: GST fusion protein containing the Listeria virulence protein InlC (Listeria monocytogenes) (UniProt P71451)
Test: pull-down

With “SH36 domain of Tuba with its GST tag removed (from UniProt Q6XZF7) (domain or fragment)” the binding was “binds”.
